Source: PubChem BioAssay AID1347076 (National Center for Advancing Translational Sciences (NCATS), 2019)
Among all 400,000 compounds or so, about 13,000 (3.2%) were called active. Inconclusive results, whose numbers are uncertain, are shown with a selection of clear calls. Calls follow the shape of the dose curve; as a rule, active = well fitted cell-killing curve with a large enough effect; inconclusive = small, poorly fitted or top-dose-only effect, or effect the other way; inactive = flat fitted curve, though single readings scatter. A potency beside an inconclusive call is a rough fit, not a confirmed value.
% is scaled to controls: 0 for no effect and ±100 for the full control effect; potency is read from the fitted curve at half-maximal effect.

Assay: qHTS assay for MDR1-selective chemotherapeutics: Primary screen using the drug-selected MDR subline cells KB-V1; also: nearly all actives have a fitted effect of over 60% in size
Settings: KB-V1 MDR cells viability, CellTiter-Glo, 72 h; activity change, negative = cytotoxicity: at 46.1 µM (top of the series)
Outline: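 KB-V1 MDR subline cells in DMEM (phenol-red free, 10% FBS) exposed to compounds in qHTS concentration series for 72 h at 37 degrees C. Viability read by CellTiter-Glo luminescence; concentration-effect curves fitted after normalization and correction.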
With `COC(=O)c1ccc(Cn2c(SCc3ccc(F)cc3)nc3ccncc32)cc1` the “activity change, negative = cytotoxicity” value was inactive: 11.1%.
For `CO/N=C/c1ccc(N2CCCC2)c([N+](=O)[O-])c1`, the Potency was inconclusive: 25.9 µM [cytotoxic, single point].
With `Cn1c(=O)cc(Nc2ccccc2)c2c(=O)n(-c3ccccc3)c(=O)n(-c3ccccc3)c21` the Potency was inconclusive: 29.1 µM [rising, single point].
With `CC(=O)c1cccc(NC(=O)Cn2nc(-c3ccccc3Cl)ccc2=O)c1` the Potency was inconclusive: 20.6 µM [cytotoxic, single point].
For `CCOc1ccc(NS(=O)(=O)c2cc(C(=O)N3CCN(c4ccccc4O)CC3)ccc2Cl)cc1`, the Potency was inconclusive: 3.26 µM [cytotoxic, full curve, poor fit].
For `CCN(CC)c1ccc(C(=O)NNC(=O)C2CSC3(C)CCC(=O)N23)cc1` (stereo not drawn), the “activity change, negative = cytotoxicity” value was inactive: 2.66%.
For `CCc1ccc(C(=O)COC(=O)CNC(=O)COc2ccccc2)cc1`, the Potency was inconclusive: 11.6 µM [rising, partial curve].
In the case of `O=C1CC(Nc2ccc(N3CCOCC3)cc2)C(=O)N1c1ccccc1F` (stereo not drawn), the Potency was inconclusive: 23.1 µM [rising, single point].
For `COc1ccc(C(CC(=O)O)NC(=O)Cc2ccccc2)cc1OC` (stereo not drawn), the Potency was inconclusive: 16.4 µM [rising, partial curve, poor fit].
For `COc1ccc(C2CN=NC23CCc2ccccc2C3=O)cc1` (stereo not drawn), the Potency was inconclusive: 23.1 µM [cytotoxic, single point].
For `O=C(CSCc1ccc(Cl)cc1)N/N=C/c1ccco1`, the Potency was inconclusive: 9.2 µM [rising, partial curve, poor fit].
With `O=C(NCCNc1ccc([N+](=O)[O-])cc1C(F)(F)F)c1cccc(F)c1` the Potency was active: 18.4 µM.
In the case of `O=S(=O)(NC(=NCCc1ccc(Cl)cc1)c1ccccc1Cl)c1cccs1`, the Potency was inconclusive: 5.8 µM [cytotoxic, full curve].
With `O=C(Cc1ccccc1)Nc1cccc(NC(=O)c2ccccc2)c1` the Potency was inconclusive: 20.6 µM [cytotoxic, single point].
For `COc1cc(C(=O)Nc2cc(C)ccn2)cc(OC)c1OC`, the Potency was inconclusive: 25.9 µM [cytotoxic, single point].
With `O=C1C[C@H]2C=CCc3cccc(c32)CN1Cc1ccc(F)cc1` the Potency was inconclusive: 23.1 µM [cytotoxic, single point].
For `CC(C)CNC(=O)COC(=O)c1c2c(nc3ccccc13)/C(=C/c1cccs1)CC2`, the Potency was inconclusive: 6.51 µM [cytotoxic, partial curve].
With `Cc1ccc(Nc2c([N+](=O)[O-])c(=O)n(C)c3ccccc23)cc1C` the Potency was inconclusive: 22.4 µM [cytotoxic, single point].
In the case of `CCCCn1c(N)c(N(CC(C)C)C(=O)c2cc3c(s2)CCCCC3)c(=O)[nH]c1=O`, the “activity change, negative = cytotoxicity” value was inactive: 0.144%.
With `O=C(NNS(=O)(=O)c1ccccc1[N+](=O)[O-])c1cccc(Br)c1` the activity change, negative = cytotoxicity was inconclusive: 60.6%.
In the case of `O=C(O)c1ccc(S(=O)(=O)Nc2ccc3c(c2)OCCO3)cc1`, the activity change, negative = cytotoxicity was inconclusive: 43.5%.
In the case of `CC(=O)NC(C)(c1ccccc1)c1nc(-c2cc(F)cc(F)c2)cs1` (stereo not drawn), the “activity change, negative = cytotoxicity” value was inactive: 0.732%.
With `O=C(COC(=O)c1ccc(F)c([N+](=O)[O-])c1)NC(=O)NCc1ccccc1` the Potency was inconclusive: 29.1 µM [cytotoxic, single point].
With `COc1ccc(/C=N/NC(=O)CCCOc2ccc(Cl)cc2Cl)cc1[N+](=O)[O-]` the Potency was active: 20.6 µM.
With `CCOCCCNC(=O)c1ccc2nc(-c3ccc(OC)c(OC)c3)c(-c3ccc(OC)c(OC)c3)nc2c1` the “activity change, negative = cytotoxicity” value was inactive: -19.4%.
For `Cc1ccc(NC(=O)CSc2nc(-c3ccco3)nc3cc(=O)[nH]n23)cc1`, the Potency was inconclusive: 8.2 µM [rising, partial curve, poor fit].
With `CN(CC(=O)Nc1ccccc1Cl)C(=O)c1ccc(COc2ccccc2)cc1` the Potency was inconclusive: 13 µM [cytotoxic, partial curve].
For `CSc1sc(C(=O)NNC(=O)c2ccc(Cl)cc2)c2c1C=CCC2`, the Potency was inconclusive: 1.84 µM [rising, partial curve].
With `O=C(OCn1ncc(Cl)c(Cl)c1=O)c1cccc(C(F)(F)F)c1` the Potency was inconclusive: 3.26 µM [cytotoxic, full curve].
For `OC(COCc1ccccc1)Cn1cnc2ccccc21` (stereo not drawn), the Potency was active: 16.4 µM.
In the case of `CN(C)c1c([N+](=O)[O-])cc2[nH]c(=O)[nH]c2c1[N+](=O)[O-]`, the Potency was inconclusive: 13 µM [cytotoxic, partial curve].
For `S=C(Nc1cccc(Cl)c1Cl)NC1CCN(Cc2ccccc2)CC1`, the Potency was inconclusive: 14.6 µM [cytotoxic, partial curve, poor fit].
In the case of `COc1ccc(-c2onc3ccc(C(=O)/C=C/N(C)C)cc23)cc1`, the Potency was inconclusive: 25.9 µM [cytotoxic, single point].
For `FC(F)(F)c1cccc(-c2ccc(/C=N/Nc3nncc(-c4ccccc4)n3)o2)c1`, the “activity change, negative = cytotoxicity” value was inactive: -2.56%.
In the case of `Cc1cc(C=O)c(C)n1-c1cc(C(F)(F)F)ccc1N1CCOCC1`, the Potency was inconclusive: 29.1 µM [cytotoxic, single point].
With `COc1cc(CC(=O)NC2CCCc3ccccc32)cc(OC)c1OC` (stereo not drawn) the Potency was inconclusive: 29.1 µM [cytotoxic, single point].
With `COC(=O)C1=CN(c2ccc(Oc3ccccc3)cc2)C(N)=C(C#N)C1c1cccc(OC)c1OC` (stereo not drawn) the Potency was inconclusive: 4.61 µM [cytotoxic, partial curve, poor fit].
For `CC1Oc2ccccc2N(CC(=O)NCCN2CCOCC2)C1=O` (stereo not drawn), the Potency was inconclusive: 18.4 µM [rising, partial curve, poor fit].
In the case of `CCc1sc(-c2cc3ccc(O)cc3oc2=O)nc1-c1ccc(C)cc1`, the Potency was inconclusive: 29.1 µM [rising, single point].
In the case of `CCOC(=O)c1c(C)[nH]c(C(=O)N/N=C\c2ccccc2O)c1C`, the Potency was active: 2.06 µM.
In the case of `Cc1ccsc1/C=N\Nc1cn[nH]c(=O)c1Cl`, the Potency was active: 2.59 µM.
For `O=C(Nc1nc(-c2nc3ccccc3s2)cs1)c1ccco1`, the “activity change, negative = cytotoxicity” value was inactive: 20.8%.
With `CCN(CC(=O)Nc1c(F)cccc1F)C(=O)C1CC(=O)N(c2ccccc2OC)C1` (stereo not drawn) the activity change, negative = cytotoxicity was inconclusive: 34.6%.
In the case of `COc1ccc(/C=N/N2C(=O)CSC2=S)cc1Br`, the Potency was inconclusive: 13 µM [rising, partial curve].
With `Cc1ccccc1C(=O)N1CCN(c2ccc(NC(=O)c3ccc([N+](=O)[O-])o3)cc2)CC1` the Potency was inconclusive: 16.4 µM [cytotoxic, partial curve].
For `Cc1ccc([C@H]2C[C@H](O)[C@@H](n3cc(COC(=O)c4ccccc4)nn3)CN2C(=O)C2CCCCC2)cc1`, the “activity change, negative = cytotoxicity” value was inactive: 0%.
For `O=C1NCC(Nc2ccc(Br)cc2)C(=O)N1` (stereo not drawn), the “activity change, negative = cytotoxicity” value was inactive: 28.6%.
With `COc1ccc(NC(=O)C2CCC(CNS(=O)(=O)c3ccc(Br)s3)CC2)c(OC)c1` (stereo not drawn) the Potency was inconclusive: 8.2 µM [cytotoxic, partial curve, poor fit].
With `COc1cccc(N(C(=O)CNC(=O)c2ccco2)C(C(=O)NC2CCCC2)c2ccco2)c1` (stereo not drawn) the Potency was inconclusive: 29.1 µM [cytotoxic, single point].
In the case of `COc1ccc(-n2ccnc2SCC(=O)NCc2ccco2)c(OC)c1`, the Potency was inconclusive: 25.9 µM [cytotoxic, single point].
For `CCc1ccc(NC(=O)Cn2cc(S(=O)(=O)c3ccc(F)cc3)c(=O)c3cc(OC)ccc32)cc1`, the “activity change, negative = cytotoxicity” value was inactive: -15.4%.
For `CC(=O)NN1C(=O)c2ccccc2NC1c1ccccc1O` (stereo not drawn), the Potency was inconclusive: 29.1 µM [rising, partial curve, poor fit].
With `CCOc1nc(Nc2ccc(OC)c(Cl)c2)nc(N2CCN(c3ccc(OC)cc3)CC2)n1` the Potency was inconclusive: 10.3 µM [cytotoxic, partial curve].
For `CCn1cc(CN2CCC(Oc3ccc(C(=O)N4CCCCC4)cc3)CC2)cn1`, the Potency was inconclusive: 10.3 µM [cytotoxic, partial curve, poor fit].
In the case of `Cc1cc(C(=O)Nc2ccc(Cl)cc2)n(-c2ccccc2)n1`, the Potency was inconclusive: 6.51 µM [rising, full curve].
For `O=C(O)c1ccc2c(c1)N(Cc1ccccc1)C(=O)c1ccccc1S2=O` (stereo not drawn), the activity change, negative = cytotoxicity was inconclusive: -8.91%.
In the case of `Nc1c(S(=O)(=O)c2cccs2)c2nc3ccccc3nc2n1Cc1ccc2c(c1)OCO2`, the Potency was inconclusive: 14.6 µM [cytotoxic, partial curve].
For `Cc1ccccc1C(=O)N1c2ncnn2C2(CCCCC2)[C@@H]2CCCC[C@@H]21`, the “activity change, negative = cytotoxicity” value was inactive: -2.08%.
For `CCc1nc(-c2ccc(C)c(S(=O)(=O)N3CCN(c4ccc(C(C)=O)cc4)CC3)c2)no1`, the “activity change, negative = cytotoxicity” value was inactive: -12.5%.
In the case of `CC(C)N1C(=O)c2ccccc2NC(=O)C1C(=O)NCc1cccc(C(F)(F)F)c1` (stereo not drawn), the “activity change, negative = cytotoxicity” value was inactive: 0.606%.
For `O=C(CSc1nc(-c2ccccc2)nc2cc(=O)[nH]n12)Nc1ccccc1`, the Potency was inconclusive: 20.6 µM [rising, single point].
In the case of `CC(C)C1C(=O)N(Cc2cn(CC3CCCCC3)nn2)CCS(=O)(=O)N1Cc1ccc(-c2ccc(F)nc2)cc1` (stereo not drawn), the Potency was inconclusive: 29.1 µM [cytotoxic, single point].
In the case of `CC(C)Nc1nc(NCCO)nc2ccccc12`, the “activity change, negative = cytotoxicity” value was inactive: 11.3%.
For `Cc1cccc(-n2ncc3c2CCCC3NC(=O)CCN2CCCO2)c1C` (stereo not drawn), the Potency was inconclusive: 16.4 µM [cytotoxic, partial curve].
With `O=c1c2oc3ccccc3c2ncn1Cc1cccc(Cl)c1` the “activity change, negative = cytotoxicity” value was inactive: -0.705%.
In the case of `O=C(/C=C/c1ccccc1)Oc1ccccc1C(=S)N1CCOCC1`, the Potency was inconclusive: 18.4 µM [rising, single point].
In the case of `O=C1Cc2ccccc2C(c2ccc(Br)cc2)N1` (stereo not drawn), the Potency was inconclusive: 20.6 µM [cytotoxic, single point].
For `CCn1cc(C(=O)N2CCN(c3cc(Cl)ccc3C)CC2)c(=O)c2cc(S(=O)(=O)N3CCCCC3)ccc21`, the “activity change, negative = cytotoxicity” value was inactive: 10.9%.
